± gives the standard deviation of the averaged measurements. The entries are a selection whose mix differs from that of the whole data set.
Compound: Nc1ncnc2c1ncn2[C@@H]1O[C@H](COP(=O)(O)OP(=O)(O)NP(=O)(O)O)[C@@H](O)[C@H]1O [adenylyl imidodiphosphate]
Assay: NP40-soluble protein abundance relative to vehicle (solubility fold change) (ratio); higher = more soluble protein in presence of AMP-PNP
Outline: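 Each value is a fold change relative to the detergent-processed vehicle, calculated per replicate from vsn-normalised intensities. Jurkat crude lysate received eight concentrations (0.1 to 10 mM) for 10 min at room temperature and 3 min at 37 °C, then was solubilised in 0.8% NP40 with benzonase (60 min, 4 °C). The ultracentrifuged supernatant was TMT-labelled and run by LC-MS/MS in three independent experiments.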

Sequences of proteins named here, by UniProt entry; tags and fusion partners are left off. A change or cut given only in a name is not applied to a line headed by its entry.
UniProt P60660, whole entry: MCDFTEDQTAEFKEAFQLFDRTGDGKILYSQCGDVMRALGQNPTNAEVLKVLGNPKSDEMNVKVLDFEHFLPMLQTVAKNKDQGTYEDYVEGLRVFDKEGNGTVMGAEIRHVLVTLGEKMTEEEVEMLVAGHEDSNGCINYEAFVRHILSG
UniProt P29692: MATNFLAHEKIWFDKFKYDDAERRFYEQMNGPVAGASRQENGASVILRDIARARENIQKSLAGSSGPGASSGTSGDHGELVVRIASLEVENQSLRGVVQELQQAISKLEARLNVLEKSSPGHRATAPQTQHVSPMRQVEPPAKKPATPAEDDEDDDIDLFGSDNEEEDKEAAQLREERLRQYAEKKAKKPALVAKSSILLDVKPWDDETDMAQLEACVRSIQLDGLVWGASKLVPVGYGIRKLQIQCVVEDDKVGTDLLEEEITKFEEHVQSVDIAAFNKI
UniProt P31483: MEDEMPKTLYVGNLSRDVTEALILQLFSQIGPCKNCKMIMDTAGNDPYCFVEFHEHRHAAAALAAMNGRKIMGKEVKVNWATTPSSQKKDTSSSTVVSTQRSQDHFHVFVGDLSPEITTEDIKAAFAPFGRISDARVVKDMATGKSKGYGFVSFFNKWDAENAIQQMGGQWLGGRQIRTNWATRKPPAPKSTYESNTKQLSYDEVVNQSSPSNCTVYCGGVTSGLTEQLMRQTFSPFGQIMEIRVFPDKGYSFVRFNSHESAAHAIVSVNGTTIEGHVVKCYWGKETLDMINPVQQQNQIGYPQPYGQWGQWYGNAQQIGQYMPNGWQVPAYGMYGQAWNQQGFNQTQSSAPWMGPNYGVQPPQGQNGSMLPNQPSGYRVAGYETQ
UniProt O95267: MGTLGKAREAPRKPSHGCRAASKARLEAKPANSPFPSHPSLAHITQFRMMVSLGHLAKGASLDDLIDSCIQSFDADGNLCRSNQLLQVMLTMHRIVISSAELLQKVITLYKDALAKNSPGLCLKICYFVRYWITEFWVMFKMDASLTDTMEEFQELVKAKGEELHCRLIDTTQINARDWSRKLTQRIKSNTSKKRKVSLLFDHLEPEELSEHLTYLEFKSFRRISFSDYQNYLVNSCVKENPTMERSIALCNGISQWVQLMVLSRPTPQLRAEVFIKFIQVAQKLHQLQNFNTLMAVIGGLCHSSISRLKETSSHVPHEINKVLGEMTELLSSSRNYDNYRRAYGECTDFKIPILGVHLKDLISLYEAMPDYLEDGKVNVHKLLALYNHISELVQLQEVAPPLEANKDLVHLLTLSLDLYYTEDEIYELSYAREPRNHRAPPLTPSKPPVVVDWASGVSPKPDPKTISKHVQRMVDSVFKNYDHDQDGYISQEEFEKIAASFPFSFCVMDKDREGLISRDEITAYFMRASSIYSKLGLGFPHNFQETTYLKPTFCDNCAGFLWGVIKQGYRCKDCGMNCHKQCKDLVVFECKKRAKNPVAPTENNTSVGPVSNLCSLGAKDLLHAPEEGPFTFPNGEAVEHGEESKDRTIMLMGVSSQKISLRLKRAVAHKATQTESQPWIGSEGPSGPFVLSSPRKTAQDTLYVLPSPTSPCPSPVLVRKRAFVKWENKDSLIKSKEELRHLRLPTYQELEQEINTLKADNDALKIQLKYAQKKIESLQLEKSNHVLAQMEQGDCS
UniProt Q92932: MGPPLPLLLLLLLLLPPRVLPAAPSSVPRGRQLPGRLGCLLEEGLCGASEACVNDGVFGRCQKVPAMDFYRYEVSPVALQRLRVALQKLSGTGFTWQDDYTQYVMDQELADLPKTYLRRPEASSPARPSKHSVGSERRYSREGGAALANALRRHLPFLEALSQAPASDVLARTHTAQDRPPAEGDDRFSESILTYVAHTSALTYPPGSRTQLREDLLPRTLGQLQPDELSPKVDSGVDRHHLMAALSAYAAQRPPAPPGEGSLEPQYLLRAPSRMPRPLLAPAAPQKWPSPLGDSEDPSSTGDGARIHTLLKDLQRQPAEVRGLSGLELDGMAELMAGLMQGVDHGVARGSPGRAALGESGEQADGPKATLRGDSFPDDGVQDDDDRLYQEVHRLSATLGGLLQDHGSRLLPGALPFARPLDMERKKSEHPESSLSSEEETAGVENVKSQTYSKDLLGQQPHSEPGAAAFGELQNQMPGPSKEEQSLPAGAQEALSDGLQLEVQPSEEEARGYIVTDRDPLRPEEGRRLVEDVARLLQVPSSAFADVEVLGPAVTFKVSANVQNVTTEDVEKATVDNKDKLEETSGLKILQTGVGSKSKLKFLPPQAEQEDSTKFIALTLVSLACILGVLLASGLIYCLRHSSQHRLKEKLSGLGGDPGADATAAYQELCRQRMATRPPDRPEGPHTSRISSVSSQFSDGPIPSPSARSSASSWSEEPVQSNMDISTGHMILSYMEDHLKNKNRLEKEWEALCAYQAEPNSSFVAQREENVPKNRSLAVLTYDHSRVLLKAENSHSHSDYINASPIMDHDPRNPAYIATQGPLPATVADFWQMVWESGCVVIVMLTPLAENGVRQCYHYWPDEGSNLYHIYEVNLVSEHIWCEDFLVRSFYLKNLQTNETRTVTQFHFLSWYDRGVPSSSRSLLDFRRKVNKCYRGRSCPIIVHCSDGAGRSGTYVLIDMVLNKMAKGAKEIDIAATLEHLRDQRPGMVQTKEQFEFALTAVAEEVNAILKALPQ
UniProt Q9BVG9: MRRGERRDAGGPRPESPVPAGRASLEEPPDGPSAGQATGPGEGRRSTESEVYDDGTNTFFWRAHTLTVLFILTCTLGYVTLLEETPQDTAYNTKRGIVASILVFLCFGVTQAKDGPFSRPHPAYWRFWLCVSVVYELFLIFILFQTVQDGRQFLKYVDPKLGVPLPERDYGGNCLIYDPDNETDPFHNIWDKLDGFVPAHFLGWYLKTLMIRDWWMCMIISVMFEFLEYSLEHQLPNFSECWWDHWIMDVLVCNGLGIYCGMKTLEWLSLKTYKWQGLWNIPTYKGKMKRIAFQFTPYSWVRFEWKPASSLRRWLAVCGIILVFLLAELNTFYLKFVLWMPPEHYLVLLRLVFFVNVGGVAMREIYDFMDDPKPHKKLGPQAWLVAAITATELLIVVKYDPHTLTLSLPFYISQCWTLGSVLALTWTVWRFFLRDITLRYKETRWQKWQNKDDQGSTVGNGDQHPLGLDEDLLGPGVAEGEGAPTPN
UniProt O00214: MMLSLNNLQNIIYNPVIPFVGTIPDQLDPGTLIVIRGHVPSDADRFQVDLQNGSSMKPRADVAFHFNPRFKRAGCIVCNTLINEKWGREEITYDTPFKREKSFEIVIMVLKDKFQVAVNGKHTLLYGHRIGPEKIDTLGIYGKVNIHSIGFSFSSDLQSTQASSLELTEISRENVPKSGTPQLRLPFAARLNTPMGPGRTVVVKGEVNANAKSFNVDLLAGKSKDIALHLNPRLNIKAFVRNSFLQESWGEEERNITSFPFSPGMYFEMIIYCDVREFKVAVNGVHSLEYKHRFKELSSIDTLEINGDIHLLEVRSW
UniProt P25786: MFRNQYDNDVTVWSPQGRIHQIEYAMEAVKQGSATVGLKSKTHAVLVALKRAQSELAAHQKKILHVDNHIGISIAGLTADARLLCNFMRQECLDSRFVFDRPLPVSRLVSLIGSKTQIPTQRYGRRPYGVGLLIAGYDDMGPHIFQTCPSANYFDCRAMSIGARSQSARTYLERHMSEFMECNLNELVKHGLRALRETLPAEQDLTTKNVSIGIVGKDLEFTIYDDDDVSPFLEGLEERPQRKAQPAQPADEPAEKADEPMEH
UniProt O00750: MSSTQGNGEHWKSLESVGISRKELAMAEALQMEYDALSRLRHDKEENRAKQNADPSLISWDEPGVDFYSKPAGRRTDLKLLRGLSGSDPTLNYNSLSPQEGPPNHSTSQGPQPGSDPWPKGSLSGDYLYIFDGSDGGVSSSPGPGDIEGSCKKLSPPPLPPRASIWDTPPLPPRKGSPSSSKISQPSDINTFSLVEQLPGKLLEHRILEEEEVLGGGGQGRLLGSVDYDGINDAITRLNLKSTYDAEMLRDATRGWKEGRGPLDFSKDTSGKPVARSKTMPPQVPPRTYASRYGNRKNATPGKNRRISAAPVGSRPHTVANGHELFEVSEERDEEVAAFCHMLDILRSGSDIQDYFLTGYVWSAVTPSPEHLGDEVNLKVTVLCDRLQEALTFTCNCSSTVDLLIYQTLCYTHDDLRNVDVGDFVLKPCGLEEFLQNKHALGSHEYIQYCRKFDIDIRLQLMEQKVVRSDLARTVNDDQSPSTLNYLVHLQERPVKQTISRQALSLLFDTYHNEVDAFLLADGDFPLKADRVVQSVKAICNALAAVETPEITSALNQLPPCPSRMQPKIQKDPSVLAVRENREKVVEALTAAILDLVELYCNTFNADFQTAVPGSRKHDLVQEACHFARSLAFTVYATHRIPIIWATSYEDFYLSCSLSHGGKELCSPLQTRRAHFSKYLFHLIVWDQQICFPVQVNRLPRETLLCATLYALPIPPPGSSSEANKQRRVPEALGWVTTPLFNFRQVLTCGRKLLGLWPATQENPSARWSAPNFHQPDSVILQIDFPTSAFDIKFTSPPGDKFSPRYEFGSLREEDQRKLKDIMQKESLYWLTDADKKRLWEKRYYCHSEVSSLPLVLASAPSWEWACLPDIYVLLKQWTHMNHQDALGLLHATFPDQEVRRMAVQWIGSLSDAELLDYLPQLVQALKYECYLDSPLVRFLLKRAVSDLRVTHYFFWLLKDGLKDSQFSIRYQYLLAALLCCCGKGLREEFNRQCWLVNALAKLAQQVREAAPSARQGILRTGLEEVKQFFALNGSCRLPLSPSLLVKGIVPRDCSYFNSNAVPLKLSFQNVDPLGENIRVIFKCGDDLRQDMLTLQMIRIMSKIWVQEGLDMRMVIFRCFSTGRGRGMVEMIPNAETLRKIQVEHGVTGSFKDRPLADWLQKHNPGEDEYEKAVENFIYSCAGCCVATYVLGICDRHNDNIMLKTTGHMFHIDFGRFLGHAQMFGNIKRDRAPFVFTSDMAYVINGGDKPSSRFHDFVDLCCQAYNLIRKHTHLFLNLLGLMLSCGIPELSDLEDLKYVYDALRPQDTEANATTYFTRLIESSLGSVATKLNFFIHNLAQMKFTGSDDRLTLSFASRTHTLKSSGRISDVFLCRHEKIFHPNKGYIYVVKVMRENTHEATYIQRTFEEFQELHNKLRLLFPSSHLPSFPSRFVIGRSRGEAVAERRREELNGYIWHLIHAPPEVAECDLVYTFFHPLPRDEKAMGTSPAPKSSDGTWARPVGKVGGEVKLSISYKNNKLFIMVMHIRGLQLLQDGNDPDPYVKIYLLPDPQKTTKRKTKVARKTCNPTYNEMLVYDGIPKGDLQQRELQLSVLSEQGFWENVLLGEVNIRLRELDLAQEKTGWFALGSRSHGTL
UniProt P61224: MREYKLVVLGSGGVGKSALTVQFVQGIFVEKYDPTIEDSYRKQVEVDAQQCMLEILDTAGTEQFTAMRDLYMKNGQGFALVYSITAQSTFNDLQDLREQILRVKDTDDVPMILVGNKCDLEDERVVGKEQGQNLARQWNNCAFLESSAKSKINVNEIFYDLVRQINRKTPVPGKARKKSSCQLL
UniProt P52789: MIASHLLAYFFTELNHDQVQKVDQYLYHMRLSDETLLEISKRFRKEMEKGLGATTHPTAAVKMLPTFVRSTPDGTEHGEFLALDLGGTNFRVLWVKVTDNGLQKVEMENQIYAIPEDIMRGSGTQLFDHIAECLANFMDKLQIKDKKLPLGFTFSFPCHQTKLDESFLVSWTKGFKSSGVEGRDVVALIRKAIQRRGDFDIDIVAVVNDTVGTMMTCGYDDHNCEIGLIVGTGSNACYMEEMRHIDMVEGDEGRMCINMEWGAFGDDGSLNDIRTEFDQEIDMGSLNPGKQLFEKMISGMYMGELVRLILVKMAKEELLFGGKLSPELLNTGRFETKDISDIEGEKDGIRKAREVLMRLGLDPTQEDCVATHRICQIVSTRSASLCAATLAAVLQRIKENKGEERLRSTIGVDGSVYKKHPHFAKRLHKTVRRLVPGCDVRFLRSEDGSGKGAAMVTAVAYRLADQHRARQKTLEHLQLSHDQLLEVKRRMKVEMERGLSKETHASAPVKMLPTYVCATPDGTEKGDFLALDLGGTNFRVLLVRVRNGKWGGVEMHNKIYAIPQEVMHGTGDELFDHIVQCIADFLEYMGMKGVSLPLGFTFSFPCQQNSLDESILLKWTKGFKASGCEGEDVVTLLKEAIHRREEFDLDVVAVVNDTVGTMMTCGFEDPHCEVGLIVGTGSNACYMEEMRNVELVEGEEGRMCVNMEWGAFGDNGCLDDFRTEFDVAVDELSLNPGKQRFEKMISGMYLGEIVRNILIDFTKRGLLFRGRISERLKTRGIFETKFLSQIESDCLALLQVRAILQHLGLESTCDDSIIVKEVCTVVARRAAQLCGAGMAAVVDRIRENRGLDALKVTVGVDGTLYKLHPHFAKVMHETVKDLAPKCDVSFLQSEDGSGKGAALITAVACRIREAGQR
UniProt Q9H0R8, whole entry, looked up: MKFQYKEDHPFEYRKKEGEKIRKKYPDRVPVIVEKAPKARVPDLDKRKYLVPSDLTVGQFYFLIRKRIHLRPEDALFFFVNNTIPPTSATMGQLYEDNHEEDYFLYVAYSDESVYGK

Target	NP40-soluble protein abundance (concentration: 1mM)	NP40-soluble protein abundance (concentration: 2mM)	NP40-soluble protein abundance (concentration: 4mM)	NP40-soluble protein abundance (concentration: 6mM)	NP40-soluble protein abundance (concentration: 8mM)	NP40-soluble protein abundance (concentration: 10mM)
E9PGC0 and related entries (UniProt P20936)	1.027 ± 0.01	1.01 ± 0.023	1.034 ± 0.01	1 ± 0.028	1.06 ± 0.048	1.03 ± 0.026
E9PE19 and related entries (UniProt Q12830)	1.04 ± 0.053	1.11 ± 0.054	1.08 ± 0.022	1.09 ± 0.048	1.05 ± 0.035	1.12 ± 0.041
F8WA39 and related entries (UniProt Q13613)	1.07 ± 0.067	1 ± 0.04	1.06 ± 0.055	0.9575 ± 0.0051	1.01 ± 0.03	0.976 ± 0.023
G3V1V0 and related entries (UniProt P60660)	1.08 ± 0.065	1.25 ± 0.13	1.09 ± 0.064	1.06 ± 0.057	0.995 ± 0.044	1.07 ± 0.1
E9PJQ6 and related entries (UniProt Q8IUX1)	1.05 ± 0.013	1.05 ± 0.019	1.031 ± 0.0095	1 ± 0.035	1 ± 0.014	1 ± 0.015
E7EUU4 and related entries (UniProt Q04637)	1.06 ± 0.036	1.12 ± 0.039	1.12 ± 0.045	1.14 ± 0.063	1.15 ± 0.039	1.17 ± 0.056
E9PRY8 and related entries (UniProt P29692)	0.983 ± 0.027	1.02 ± 0.017	0.961 ± 0.014	0.934 ± 0.059	0.932 ± 0.024	0.896 ± 0.041
F8W8I6 and related entries (UniProt P31483)	0.996 ± 0.023	0.966 ± 0.047	0.955 ± 0.035	0.953 ± 0.015	0.928 ± 0.051	0.924 ± 0.045
F5H514 and related entries (UniProt O95267)	1 ± 0.05	1.01 ± 0.058	0.995 ± 0.011	0.976 ± 0.061	0.998 ± 0.038	1.01 ± 0.049
E7EM83 and related entries (UniProt Q92932)	1.03 ± 0.017	1.04 ± 0.022	0.9895 ± 0.0089	0.996 ± 0.012	1.003 ± 0.0021	0.996 ± 0.026
E9PLE4 and related entries (UniProt Q9BVG9)	1.02 ± 0.02	1.04 ± 0.054	1.01 ± 0.045	1.03 ± 0.023	1.03 ± 0.013	1.03 ± 0.012
F6V2D4 and related entries (UniProt O00214)	0.99 ± 0.029	0.978 ± 0.044	0.994 ± 0.02	1 ± 0.025	1.02 ± 0.015	1.02 ± 0.021
E7EQ69 (UniProt Q9GZZ1)	0.992 ± 0.036	1 ± 0.053	1.03 ± 0.0084	1.12 ± 0.09	1.1 ± 0.052	1.11 ± 0.063
E7EVC7 and related entries (UniProt Q676U5)	1.04 ± 0.032	1.07 ± 0.051	1.02 ± 0.019	0.984 ± 0.062	0.948 ± 0.062	0.983 ± 0.072
F5GX11 and related entries (UniProt P25786)	0.957 ± 0.045	0.959 ± 0.052	0.951 ± 0.071	1.02 ± 0.045	1.01 ± 0.067	1.04 ± 0.12
E9PDF6 and related entries (UniProt O43795)	2.06 ± 0.29	2.04 ± 0.2	2.31 ± 0.29	2.37 ± 0.28	2.45 ± 0.32	2.39 ± 0.27
F5GWN5 and related entries (UniProt O00750)	1.006 ± 0.0069	0.981 ± 0.025	1.01 ± 0.033	0.989 ± 0.031	0.9687 ± 0.0093	0.96 ± 0.027
E9PGC8 (UniProt P78559)	1.03 ± 0.036	1.06 ± 0.027	1.03 ± 0.031	1.04 ± 0.052	1.01 ± 0.054	1.03 ± 0.077
F5GXC5 and related entries (UniProt Q8TB96)	1.01 ± 0.017	1.02 ± 0.054	1.01 ± 0.037	1.008 ± 0.0079	1.01 ± 0.024	0.996 ± 0.023
E7EPM6 and related entries (UniProt P33121)	0.986 ± 0.013	0.936 ± 0.088	0.99 ± 0.021	0.938 ± 0.031	0.963 ± 0.03	0.916 ± 0.027
F5GWU8 and related entries (UniProt P61224)	1.04 ± 0.025	1.04 ± 0.027	1.02 ± 0.029	1 ± 0.03	0.986 ± 0.011	1.01 ± 0.038
G3V167 and related entries (UniProt Q9UGN5)	1.01 ± 0.042	1.02 ± 0.03	1.01 ± 0.046	1.04 ± 0.046	1.02 ± 0.056	1.09 ± 0.065
E9PB90 and related entries (UniProt P52789)	0.977 ± 0.014	0.983 ± 0.021	1.02 ± 0.051	0.99 ± 0.024	0.988 ± 0.022	1.015 ± 0.0054
F5H136 and related entries (UniProt P17987)	0.97 ± 0.059	0.926 ± 0.055	0.928 ± 0.088	0.937 ± 0.08	0.9 ± 0.049	0.929 ± 0.13
E7EW84 and related entries (UniProt Q8TAG9)	1 ± 0.039	0.975 ± 0.041	1.02 ± 0.053	0.957 ± 0.017	0.963 ± 0.016	0.98 ± 0.035
F8WE26 and related entries (UniProt O75431)	1 ± 0.023	0.974 ± 0.041	0.995 ± 0.053	1.015 ± 0.0033	1.04 ± 0.036	0.995 ± 0.053
E9PHH9 and related entries (UniProt Q9BUI4)	0.964 ± 0.041	0.945 ± 0.016	0.961 ± 0.051	0.988 ± 0.044	0.978 ± 0.052	0.947 ± 0.039
F5H269 and related entries (UniProt Q9Y485)	0.992 ± 0.012	1.01 ± 0.026	1.01 ± 0.039	0.97 ± 0.015	0.964 ± 0.032	1.02 ± 0.031
F5GZY7 and related entries (UniProt Q9H0R8)	0.98 ± 0.018	0.931 ± 0.083	0.972 ± 0.064	0.991 ± 0.043	0.984 ± 0.053	0.947 ± 0.041
F8WDV0 and related entries (UniProt Q9UI26)	0.985 ± 0.025	0.935 ± 0.057	0.973 ± 0.011	0.978 ± 0.023	0.956 ± 0.043	0.954 ± 0.027

Fetched one by one from the list above (2):
Target	NP40-soluble protein abundance (concentration: 1mM)	NP40-soluble protein abundance (concentration: 2mM)	NP40-soluble protein abundance (concentration: 4mM)	NP40-soluble protein abundance (concentration: 6mM)	NP40-soluble protein abundance (concentration: 8mM)	NP40-soluble protein abundance (concentration: 10mM)
F6V2D4 and related entries (UniProt O00214)	0.99 ± 0.029	0.978 ± 0.044	0.994 ± 0.02	1 ± 0.025	1.02 ± 0.015	1.02 ± 0.021
F5GWN5 and related entries (UniProt O00750)	1.006 ± 0.0069	0.981 ± 0.025	1.01 ± 0.033	0.989 ± 0.031	0.9687 ± 0.0093	0.96 ± 0.027

Source: the supplement of paper PMC6411743
